Results published in PubChem BioAssay AID2551 (National Center for Advancing Translational Sciences (NCATS), 2010).
Out of some 310,000 compounds screened, about 17,000 (5.5%) were called active. Inconclusive results, whose numbers are uncertain, are shown with a selection of clear calls. The call rests on the fitted dose curve; in most records, active means well fitted inhibition curve with a large enough effect; inconclusive means small, poorly fitted or top-dose-only effect, or effect the other way; inactive means no such curve, though single readings can be large or run the other way. Potencies of inconclusive entries are doubtful fits and often do not repeat.

By UniProt entry, the sequences of proteins in these tests, tags left out. Where a name states a change or a piece, a line headed by the entry shows the natural chain unless it says otherwise.
UniProt P51450: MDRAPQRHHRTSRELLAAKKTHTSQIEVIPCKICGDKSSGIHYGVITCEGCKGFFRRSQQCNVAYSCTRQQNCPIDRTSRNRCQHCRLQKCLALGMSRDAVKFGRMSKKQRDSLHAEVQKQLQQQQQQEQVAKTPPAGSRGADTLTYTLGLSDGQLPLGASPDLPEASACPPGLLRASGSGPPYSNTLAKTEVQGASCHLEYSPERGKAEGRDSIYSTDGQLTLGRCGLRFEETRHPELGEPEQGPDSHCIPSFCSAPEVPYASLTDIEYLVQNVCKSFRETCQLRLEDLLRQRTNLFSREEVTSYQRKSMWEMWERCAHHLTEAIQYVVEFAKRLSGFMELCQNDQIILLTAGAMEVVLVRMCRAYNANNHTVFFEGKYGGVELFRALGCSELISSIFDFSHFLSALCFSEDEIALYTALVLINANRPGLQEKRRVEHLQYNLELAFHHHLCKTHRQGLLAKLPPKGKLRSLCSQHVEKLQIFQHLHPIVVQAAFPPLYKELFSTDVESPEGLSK

molecular target: Nuclear receptor ROR-gamma (Mus musculus) (UniProt P51450); assay: qHTS for inhibitors of ROR gamma transcriptional activity; settings: Drosophila S2 Gal4-RORgamma UAS-luciferase reporter, 20 h; series mostly up to 53.6 µM; further: nearly all actives have a fitted effect of over 60% in size
How it was run: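 Compounds are pin-transferred onto Drosophila Schneider cells expressing a copper-inducible Gal4–ROR gamma transactivation domain fusion. After 1 hr, copper sulfate is added to 700 uM final; luciferase is read 20 hr later.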
Potency means the concentration at half of the fitted maximal effect.

Row | SMILES | Potency
1 | CC1CC(C)(C)N(C(=O)NC2CCCCC2)c2ccccc21 (centres undefined) | inconclusive: 0.316 µM [activator, single point]
2 | CC(C)c1ccc(OCC(=O)N2CCN(c3ccccn3)CC2)c(Br)c1 | inconclusive: 15.8 µM [activator, single point]
3 | CCOC(=O)c1ccc(NC(=S)Nc2cccc(C)n2)cc1 | active: 0.891 µM
4 | COc1cccc(/C=N/n2cnc3cc(C)c(C)cc32)c1OC | inconclusive: 6.31 µM [inhibitor, partial curve]
5 | CCC(C)C(=O)Nc1nc(C)c(-c2csc(Nc3ccccc3OC)n2)s1 (centres undefined) | inconclusive: 3.16 µM [activator, single point]
6 | Cc1cc(Cl)ccc1NC(=S)NCCc1ccc(Cl)cc1 | active: 6.31 µM
7 | Cc1cc(C)c2c(=O)n(CC(=O)Nc3ccc(Cl)cc3)sc2n1 | inconclusive: 17.8 µM [inhibitor, single point]
8 | CCOc1cc2[nH]c(=S)n(Cc3ccc(C(=O)N4CCN(C)CC4)cc3)c(=O)c2cc1OCC | inconclusive: 3.16 µM [inhibitor, partial curve]
9 | Fc1ccccc1Nc1nc2ccccc2o1 | inconclusive: 14.1 µM [inhibitor, single point]
10 | O=C(Nc1nc(-c2ccc(Cl)cc2Cl)cs1)C1CCCO1 (centres undefined) | inconclusive: 15.8 µM [activator, single point]
11 | N#C/C(=C/c1cccc(O)c1)C(=O)NCc1ccc(Cl)cc1 | inconclusive: 31.6 µM [inhibitor, single point]
12 | Cc1cccc(NC(=O)CSc2nnc(-c3ccccc3C)o2)c1 | active: 5.01 µM
13 | FC(F)(F)c1cnc(N/N=C/c2ccncc2)c(Cl)c1 | active: 12.6 µM
14 | O=C(Nc1ccc([N+](=O)[O-])cn1)C1CC2CCC1C2 (centres undefined) | inconclusive: 31.6 µM [activator, single point]
15 | CC(C)(C)OC(=O)Cn1c(=O)cnc2ccccc21 | inconclusive: 3.55 µM [inhibitor, single point]
16 | CCOC(=O)c1c(NC(=O)CN2CCN(C(=O)c3ccco3)CC2)sc2c1CCCC2 | inconclusive: 35.5 µM [inhibitor, partial curve, poor fit]
17 | Cc1ccc(C(=O)N/N=C\c2ccc([N+](=O)[O-])o2)cn1 | inconclusive: 10 µM [inhibitor, partial curve]
18 | CN1CC(=O)N(CC(=O)N2CCC(Cc3ccccc3)CC2)C1=O | inconclusive: 1.26 µM [activator, partial curve]
19 | Cn1c(=O)c2ncn(CC(=O)Nc3cc(C(F)(F)F)ccc3N3CCOCC3)c2n(C)c1=O | inconclusive: 12.6 µM [activator, single point]

Nothing new here: an excerpt of the list.
Row | SMILES | Potency
13 | FC(F)(F)c1cnc(N/N=C/c2ccncc2)c(Cl)c1 | active: 12.6 µM
14 | O=C(Nc1ccc([N+](=O)[O-])cn1)C1CC2CCC1C2 (centres undefined) | inconclusive: 31.6 µM [activator, single point]
15 | CC(C)(C)OC(=O)Cn1c(=O)cnc2ccccc21 | inconclusive: 3.55 µM [inhibitor, single point]
16 | CCOC(=O)c1c(NC(=O)CN2CCN(C(=O)c3ccco3)CC2)sc2c1CCCC2 | inconclusive: 35.5 µM [inhibitor, partial curve, poor fit]
17 | Cc1ccc(C(=O)N/N=C\c2ccc([N+](=O)[O-])o2)cn1 | inconclusive: 10 µM [inhibitor, partial curve]
